The text below walks through data of PMC3514159.

Sequences of proteins named here, by UniProt entry; tags and fusion partners are left off.
UniProt P09022: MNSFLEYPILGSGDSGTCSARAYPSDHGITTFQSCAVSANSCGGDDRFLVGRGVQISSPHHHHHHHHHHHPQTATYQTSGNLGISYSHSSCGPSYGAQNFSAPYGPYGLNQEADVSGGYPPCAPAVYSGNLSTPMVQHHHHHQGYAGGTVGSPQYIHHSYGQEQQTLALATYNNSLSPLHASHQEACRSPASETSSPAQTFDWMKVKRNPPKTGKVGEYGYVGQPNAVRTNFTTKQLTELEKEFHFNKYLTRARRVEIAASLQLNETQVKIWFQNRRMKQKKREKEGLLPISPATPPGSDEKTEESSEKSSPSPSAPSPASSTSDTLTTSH

The labels stand for the following.
B1: NEDD4 binding protein 2-like 2 (protein, UniProt Q92802 1-583)
chain: MSYGEIEGKFLGPREEVTSEPRCKKLKSTTESYVFHNHSNADFHRIQEKTGNDWVPVTIIDVRGHSYLQENKIKTTDLHRPLHDEMPGNRPDVIESIDSQVLQEARPPLVSADDEIYSTSKAFIGPIYKPPEKKKRNEGRNEAHVLNGINDRGGQKEKQKFNSEKSEIDNELFQFYKEIEELEKEKDGFENSCKESEPSQEQFVPFYEGHNNGLLKPDEEKKDLSNKAMPSHCDYQQNLGNEPDKYPCNGQVIPTFCDTSFTSFRPEWQSVYPFIVPYGPPLPSLNYHLNIQRFSGPPNPPSNIFQAQDDSQIQNGYYVNNCHVNWNCMTFDQNNEYTDCSENRSSVHPSGNGCSMQDRYVSNGFCEVRERCWKDHCMDKHNGTDRFVNQQFQEEKLNKLQKLLILLRGLPGSGKTTLSRILLGQNRDGIVFSTDDYFHHQDGYRYNVNQLGDAHDWNQNRAKQAIDQGRSPVIIDNTNIQAWEMKPYVEVAIGKGYRVEFHEPETWWKFDPEELEKRNKHGVSRKKIAQMLDRYEYQMSISIVMNSVEPSHKSTQRPPPPQGRQRWGGSLGSHNRVCVTNNH
B2: mannosyl (α-1,6-)-glycoprotein β-1,6-N-acetyl-glucosaminyltransferase, isozyme B (protein, UniProt Q3V5L5 1-792)
chain: MITVNPDGKIMVRRCLVTLRPFRLFVLGIGFFTLCFLMTSLGGQFSARRLGDSPFTIRTEVMGGPESRGVLRKMSDLLELMVKRMDALARLENSSELHRAGGDLHFPADRMPPGAGLMERIQAIAQNVSDIAVKVDQILRHSLLLHSKVSEGRRDQCEAPSDPKFPDCSGKVEWMRARWTSDPCYAFFGVDGTECSFLIYLSEVEWFCPPLPWRNQTAAQRAPKPLPKVQAVFRSNLSHLLDLMGSGKESLIFMKKRTKRLTAQWALAAQRLAQKLGATQRDQKQILVHIGFLTEESGDVFSPRVLKGGPLGEMVQWADILTALYVLGHGLRVTVSLKELQSNLGVPPGRGSCPLTMPLPFDLIYTDYHGLQQMKRHMGLSFKKYRCRIRVIDTFGTEPAYNHEEYATLHGYRTNWGYWNLNPKQFMTMFPHTPDNSFMGFVSEELNETEKRLIKGGKASNMAVVYGKEASIWKLQGKEKFLGILNKYMEIHGTVYYESQRPPEVPAFVKNHGLLPQPEFQQLLRKAKLFIGFGFPYEGPAPLEAIANGCIFLQSRFSPPHSSLNHEFFRGKPTSREVFSQHPYAENFIGKPHVWTVDYNNSEEFEAAIKAIMRTQVDPYLPYEYTCEGMLERIHAYIQHQDFCRAPDPALPEAHAPQSPFVLAPNATHLEWARNTSLAPGAWPPAHALRAWLAVPGRACTDTCLDHGLICEPSFFPFLNSQDAFLKLQVPCDSTESEMNHLYPAFAQPGQECYLQKEPLLFSCAGSNTKYRRLCPCRDFRKGQVALCQGCL
B3: leupaxin (protein, UniProt O60711 1-386)
chain: MEELDALLEELERSTLQDSDEYSNPAPLPLDQHSRKETNLDETSEILSIQDNTSPLPAQLVYTTNIQELNVYSEAQEPKESPPPSKTSAAAQLDELMAHLTEMQAKVAVRADAGKKHLPDKQDHKASLDSMLGGLEQELQDLGIATVPKGHCASCQKPIAGKVIHALGQSWHPEHFVCTHCKEEIGSSPFFERSGLAYCPNDYHQLFSPRCAYCAAPILDKVLTAMNQTWHPEHFFCSHCGEVFGAEGFHEKDKKPYCRKDFLAMFSPKCGGCNRPVLENYLSAMDTVWHPECFVCGDCFTSFSTGSFFELDGRPFCELHYHHRRGTLCHGCGQPITGRCISAMGYKFHPEHFVCAFCLTQLSKGIFREQNDKTYCQPCFNKLFPL
B4: keratin associated protein 4-12 (protein, UniProt Q9BQ66 1-201)
chain: MVNSCCGSVCSDQGCGLENCCRPSCCQTTCCRTTCCRPSCCVSSCCRPQCCQSVCCQPTCCRPSCCQTTCCRTTCCRPSCCVSSCCRPQCCQSVCCQPTCCRPSCCQTTCCRTTCCRPSCCVSSCCRPQCCQSVCCQPTCCRPSCCISSSCCPSCCESSCCRPCCCLRPVCGRVSCHTTCYRPTCVISTCPRPLCCASSCC
B5: four and a half LIM domains 5 (protein, UniProt Q5TD97 1-284)
chain: MTTAHFYCQYCTASLLGKKYVLKDDSPYCVTCYDRVFSNYCEECKKPIESDSKDLCYKDRHWHEGCFKCTKCNHSLVEKPFAAKDERLLCTECYSNECSSKCFHCKRTIMPGSRKMEFKGNYWHETCFVCENCRQPIGTKPLISKESGNYCVPCFEKEFAHYCNFCKKVITSGGITFCDQLWHKECFLCSGCRKDLCEEQFMSRDDYPFCVDCYNHLYANKCVACSKPISGLTGAKFICFQDSQWHSECFNCGKCSVSLVGKGFLTQNKEIFCQKCGSGMDTDI
B6: ligand of numb-protein X 2 (protein, UniProt Q8N448 1-690)
chain: MGTTSDEMVSVEQTSSSSLNPLCFECGQQHWTRENHLYNYQNEVDDDLVCHICLQPLLQPLDTPCGHTFCYKCLRNFLQEKDFCPLDRKRLHFKLCKKSSILVHKLLDKLLVLCPFSSVCKDVMQRCDLEAHLKNRCPGASHRRVALERRKTSRTQAEIENENGPTLLDPAGTLSPEADCLGTGAVPVERHLTSASLSTWSEEPGLDNPAFEESAGADTTQQPLSLPEGEITTIEIHRSNPYIQLGISIVGGNETPLINIVIQEVYRDGVIARDGRLLAGDQILQVNNYNISNVSHNYARAVLSQPCNTLHLTVLRERRFGNRAHNHSDSNSPREEIFQVALHKRDSGEQLGIKLVRRTDEPGVFILDLLEGGLAAQDGRLSSNDRVLAINGHDLKYGTPELAAQIIQASGERVNLTIARPGKPQPGNTIREAGNHSSSSQHHTPPPYYSRPSSHKDLTQCVTCQEKHITVKKEPHESLGMTVAGGRGSKSGELPIFVTSVPPHGCLARDGRIKRGDVLLNINGIDLTNLSHSEAVAMLKASAASPAVALKALEVQIVEEATQNAEEQPSTFSENEYDASWSPSWVMWLGLPSTLHSCHDIVLRRSYLGSWGFSIVGGYEENHTNQPFFIKTIVLGTPAYYDGRLKCGDMIVAVNGLSTVGMSHSALVPMLKEQRNKVTLTVICWPGSLV
B7: lectin, galactoside-binding, soluble, 13 (protein, UniProt Q9UHV8 1-139)
chain: MSSLPVPYKLPVSLSVGSCVIIKGTPIHSFINDPQLQVDFYTDMDEDSDIAFRFRVHFGNHVVMNRREFGIWMLEETTDYVPFEDGKQFELCIYVHYNEYEIKVNGIRIYGFVHRIPPSFVKMVQVSRDISLTSVCVCN

These are yes or no findings as the source states them, for the method shown. For some assays here: In cells and extracts the contact can be indirect. Some results given as binding are weak or reduced against the parent protein; the word gives no strength. Tags and fused reporters may be left off the sequences shown.

For the first assay, the target named is VC155-Hoxa1 (mouse) (UniProt P09022). The assay can be described thus: split reporter; BiFC in transfected MCF10A cells: VN173-hORF with VC155-Hoxa1; fixed 24 h after transfection, confocal microscopy.
As for B1, the binding result is listed as “binds”.

For the molecule B2, the binding entry is “binds”.

Take B3: the binding entry was “binds”.

For the molecule B4, the binding entry is reported as “binds”.

Turning to B5, the binding entry is “binds”.

For B6, the binding entry is listed as “binds”.

With B7, the binding result is “binds”.

A further assay deals with Hoxa1 (mouse) (UniProt P09022). Briefly: two-hybrid; DB-Hoxa1 (Gal4 DNA binding domain) in MATα Y8930 mated with the AD-hORF library (human ORFeome v3.1) in MATa Y8800; 30°C; selection on Sc-L-T-H + 1 mM 3AT, retest on Sc-L-T-H, Sc-L-T-A and Sc-L-T-H-A+3AT.
On to B1, for which the binding result is reported as “binds”.

As to B2, the binding result was “binds”.

On to B3, for which the binding result is recorded as “binds”.

For B4, the binding entry is on record as “binds”.

Consider B5, for which the binding entry was “binds”.

In the case of B6, the binding result is listed as “binds”.

As to B7, the binding entry is listed as “binds”.
